# Laboratory results reported in the supplement of paper PMC8728848.
# Some of the results follow.
# B1: ArathEULS3 TAP (Arabidopsis thaliana) (protein)
# chain: IDENLYFQGGSMDEKTTGWRGGHVVEGLAGELEQLRARLEHHPQGQREPGGGGSLEITSLYKKAGFMEHHHQHHRHHQRDDGEDDRQSFGVPPPHVDAPPQPHGLYQSQPHFDPYAPTPQAPAPYRSETQFEPHAPPPYRSEPYFETPAPPPSFGHVSHVGHQSPNESYPPEHHRYGGYQQPSNSLLESHGDHSGVTHVAHHSSNQPQSSSGVYHKPDENRLPDNLAGLAGRATVKVYSKAEPNYNLTIRDGKVILAPADPSDEAQHWYKDEKYSTKVKDADGHPCFALVNKATGEAMKHSVGATHPVHLIRYVPDKLDESVLWTESKDFGDGYRTIRMVNNTRLNVDAYHGDSKSGGVRDGTTIVLWDWNKGDNQLWKIFPF
# Tests used:
# Assay in all cases: glycan array binding signal (z-score within array); higher = stronger binding
# Settings in all cases: glycan notation: IUPAC condensed, linker removed
# [1] = target: GlcNAc(b1-3)Gal(b1-4)GlcNAc(b1-3)Gal(b1-4)GlcNAc(b1-3)GalNAc
# Procedure, shortened: (§1)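 The binding signal is a Z-score computed within each array. Data were drawn from 3228 arrays in the Consortium for Functional Glycomics database, restricted to those with a known protein sequence. Scores were averaged over arrays of the same protein sequence at different concentrations or buffers, and over linkers, and negative values can be taken as non-binding.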
# [2] = target: GlcNAc(b1-3)Gal(b1-4)GlcNAc(b1-3)GalNAc
# Procedure, shortened: as §1
# [3] = target: GlcNAc(b1-3)Gal(b1-4)GlcNAc(b1-3)[GlcNAc(b1-3)Gal(b1-4)GlcNAc(b1-3)]GalNAc
# Procedure, shortened: as §1
# [4] = target: GlcNAc(b1-3)Gal(b1-4)GlcNAc(b1-6)[Gal(b1-3)]GalNAc
# Procedure, shortened: as §1
# [5] = target: GlcNAc(b1-3)Gal(b1-4)GlcNAc(b1-6)[GlcNAc(b1-3)Gal(b1-3)]GalNAc
# Procedure, shortened: as §1
# [6] = target: GlcNAc(b1-3)Gal(b1-4)GlcNAc(b1-6)[GlcNAc(b1-3)]Gal(b1-4)GlcNAc
# Procedure, shortened: as §1
# [7] = target: GlcNAc(b1-3)GalNAc
# Procedure, shortened: as §1
# [8] = target: GlcNAc(b1-3)Man
# Procedure, shortened: as §1
# [9] = target: GlcNAc(b1-3)[GlcNAc(b1-4)][GlcNAc(b1-6)]GlcNAc
# Procedure, shortened: as §1
# [10] = target: GlcNAc(b1-3)[GlcNAc(b1-6)]Gal(b1-4)GlcNAc
# Procedure, shortened: as §1
# [11] = target: GlcNAc(b1-3)[GlcNAc(b1-6)]GalNAc
# Procedure, shortened: as §1
# [12] = target: GlcNAc(b1-4)Gal(b1-4)GlcNAc
# Procedure, shortened: as §1
# [13] = target: GlcNAc(b1-4)GlcNAc
# Procedure, shortened: as §1
# [14] = target: GlcNAc(b1-4)GlcNAc(b1-4)GlcNAc
# Procedure, shortened: as §1
# [15] = target: GlcNAc(b1-4)GlcNAc(b1-4)GlcNAc(b1-4)GlcNAc(b1-4)GlcNAc
# Procedure, shortened: as §1
# [16] = target: GlcNAc(b1-4)GlcNAc(b1-4)GlcNAc(b1-4)GlcNAc(b1-4)GlcNAc(b1-4)GlcNAc
# Procedure, shortened: as §1
# [17] = target: GlcNAc(b1-4)[GlcNAc(b1-6)]GalNAc
# Procedure, shortened: as §1
# [18] = target: GlcNAc(b1-6)Gal(b1-4)GlcNAc
# Procedure, shortened: as §1
# [19] = target: GlcNAc(b1-6)GalNAc
# Procedure, shortened: as §1
# [20] = target: GlcNAc6S(b1-3)Gal(b1-4)GlcNAc
# Procedure, shortened: as §1
# [21] = target: Kdn(a2-3)Gal(b1-3)GalNAc
# Procedure, shortened: as §1
# [22] = target: Kdn(a2-3)Gal(b1-3)GlcNAc
# Procedure, shortened: as §1
# [23] = target: Kdn(a2-3)Gal(b1-4)Glc
# Procedure, shortened: as §1
# [24] = target: Kdn(a2-3)Gal(b1-4)GlcNAc
# Procedure, shortened: as §1
# [25] = target: Kdn(a2-3)Gal(b1-4)[Fuc(a1-3)]GlcNAc
# Procedure, shortened: as §1
# [26] = target: Kdn(a2-6)Gal(b1-4)GlcNAc
# Procedure, shortened: as §1
# [27] = target: Man(a1-2)Man(a1-2)Man(a1-3)Man
# Procedure, shortened: as §1
# [28] = target: Man(a1-2)Man(a1-2)Man(a1-6)[Man(a1-3)]Man
# Procedure, shortened: as §1
# [29] = target: Man(a1-2)Man(a1-3)Man
# Procedure, shortened: as §1
# [30] = target: Man(a1-2)Man(a1-3)[Man(a1-2)Man(a1-6)]Man
# Procedure, shortened: as §1
# [31] = target: Man(a1-2)Man(a1-3)[Man(a1-2)Man(a1-6)]Man(a1-6)[Man(a1-2)Man(a1-2)Man(a1-3)]Man
# Procedure, shortened: as §1
# [32] = target: Man(a1-2)Man(a1-3)[Man(a1-2)Man(a1-6)]Man(a1-6)[Man(a1-2)Man(a1-2)Man(a1-3)]Man(b1-4)GlcNAc(b1-4)GlcNAc
# Procedure, shortened: as §1
# [33] = target: Man(a1-2)Man(a1-3)[Man(a1-6)]Man(a1-6)[Man(a1-2)Man(a1-3)]Man(b1-4)GlcNAc(b1-4)GlcNAc
# Procedure, shortened: as §1
# [34] = target: Man(a1-2)Man(a1-6)[Man(a1-3)]Man(a1-6)[Man(a1-2)Man(a1-2)Man(a1-3)]Man
# Procedure, shortened: as §1
# [35] = target: Man(a1-2)Man(a1-6)[Man(a1-3)]Man(a1-6)[Man(a1-2)Man(a1-2)Man(a1-3)]Man(b1-4)GlcNAc(b1-4)GlcNAc
# Procedure, shortened: as §1
# [36] = target: Man(a1-3)[Man(a1-6)]Man
# Procedure, shortened: as §1
# [37] = target: Man(a1-3)[Man(a1-6)]Man(a1-6)[Man(a1-2)Man(a1-3)]Man(b1-4)GlcNAc(b1-4)GlcNAc
# Procedure, shortened: as §1
binder,measurement,setting,value
B1,glycan array binding signal (z-score),[1],0.432
same,glycan array binding signal (z-score),[2],-0.81
same,glycan array binding signal (z-score),[3],0.844
same,glycan array binding signal (z-score),[4],-0.045
same,glycan array binding signal (z-score),[5],-0.321
same,glycan array binding signal (z-score),[6],-1
same,glycan array binding signal (z-score),[7],-0.34
same,glycan array binding signal (z-score),[8],0.29
same,glycan array binding signal (z-score),[9],2.06
same,glycan array binding signal (z-score),[10],1.04
same,glycan array binding signal (z-score),[11],-0.998
same,glycan array binding signal (z-score),[12],-0.159
same,glycan array binding signal (z-score),[13],0.04
same,glycan array binding signal (z-score),[14],-1.3
same,glycan array binding signal (z-score),[15],0.495
same,glycan array binding signal (z-score),[16],1.42
same,glycan array binding signal (z-score),[17],0.748
same,glycan array binding signal (z-score),[18],0.29
same,glycan array binding signal (z-score),[19],-0.683
same,glycan array binding signal (z-score),[20],1.45
same,glycan array binding signal (z-score),[21],0.204
same,glycan array binding signal (z-score),[22],-0.135
same,glycan array binding signal (z-score),[23],0.205
same,glycan array binding signal (z-score),[24],0.091
same,glycan array binding signal (z-score),[25],0.083
same,glycan array binding signal (z-score),[26],0.575
same,glycan array binding signal (z-score),[27],-1.3
same,glycan array binding signal (z-score),[28],1.32
same,glycan array binding signal (z-score),[29],-1.46
same,glycan array binding signal (z-score),[30],-0.663
same,glycan array binding signal (z-score),[31],-0.658
same,glycan array binding signal (z-score),[32],-0.311
same,glycan array binding signal (z-score),[33],0.764
same,glycan array binding signal (z-score),[34],-1.41
same,glycan array binding signal (z-score),[35],-1.48
same,glycan array binding signal (z-score),[36],0.692
same,glycan array binding signal (z-score),[37],0.556

# Looked up one by one from above:
binder,measurement,setting,value
B1,glycan array binding signal (z-score),[6],-1
same,glycan array binding signal (z-score),[15],0.495
